# Results reported in PubChem BioAssay AID2685 (National Center for Advancing Translational Sciences (NCATS), 2010).
# The other results are listed elsewhere or left out. Shown are side measurements of this screen, not its main read-out; they come without a call. The list favours compounds with an active or inconclusive main result. Potencies come from curve fits of mixed quality, noted in brackets.
# Assay: qHTS Assay for Lipid Storage Modulators in Drosophila S3 Cells;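 for cell number change: cells counted by Cell Tracker Red CMTPX staining in the red channel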
# Conditions: BODIPY lipid droplet fluorescence, 18-24 h; for cell number change: measured here: cell count max response, cells fed with added oleic acid
# In short: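 Drosophila S3 cells got compounds at several concentrations plus oleic acid (400 uM solution). Laser-scanning cytometry with 488 nm excitation read lipid droplets at 500-530 nm and cells at 575-640 nm. Percent activity was relative to 20 uM Triacsin C.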
# [1] = measured here: cell number channel AC50, cells fed with added oleic acid
# [2] = measured here: lipid fluorescence (Fed channel) AC50, cells fed with added oleic acid
Structure (SMILES),AC50 [1],cell number change,AC50 [2]
O=C(Nc1ccncc1)Nc1ccc(F)cc1F,"0.411 µM [falling, single point]",–,–
O=C1C=C(NC2=CC3OC(c4ccccc4)OCC3OC2=O)CCC1 (stereo not given),"23.1 µM [falling, partial curve]",-72.4%,"0.58 µM [falling, single point]"
COc1ccccc1OCC(=O)Nc1ccccc1C(=O)NCc1cccnc1,–,-6.58%,–
O=c1[nH]c(/C=C/c2ccc(OC(F)F)cc2)nc2c1cnn2-c1ccccc1,"9.2 µM [rising, partial curve]",49%,"0.00411 µM [rising, full curve, poor fit]"
O=C(CCSCc1ccccc1Cl)N1CCN(c2cccc(Cl)c2)CC1,"29.1 µM [rising, single point]",34.5%,"25.9 µM [rising, single point]"
N#CC1=C(N)OC(c2ccccc2)=C(C#N)C1c1ccc2c(c1)OCO2 (stereo not given),–,-2.58%,"4.11 µM [rising, partial curve]"
N#CCc1ccc(NC(=O)CSc2nnc(C3CC3)n2C2CC2)cc1,–,-13%,"20.6 µM [rising, single point]"
O=C(CSc1nc2ccccc2s1)N/N=C/c1cc([N+](=O)[O-])ccc1O,–,3.27%,–
C=CCn1c(-c2ccc3[nH]c(C)c(C)c3c2)n[nH]c1=S,–,-3.47%,–
CCOC(=O)c1cccc(NC(=O)Cn2cnc3c2c(=O)n(C)c(=O)n3C)c1,–,–,"0.231 µM [rising, full curve, poor fit]"
COc1ccc(-c2nc(C)ncc2-c2csc(C)n2)c(O)c1,"4.11 µM [rising, partial curve, poor fit]",42.6%,"2.59 µM [rising, partial curve]"
CCOC(=O)N1CCC(c2nc3ccccc3[nH]2)CC1,"0.651 µM [falling, single point]",4.23%,–
O=C(c1cc(-c2ccccc2)nc2ccccc12)N1CCCC1,–,10.1%,–
CCCOc1ccc(N2CC(C(=O)Nc3ncccc3C)CC2=O)cc1 (stereo not given),"9.2 µM [rising, partial curve]",124%,"2.06 µM [rising, partial curve]"
O=C(COc1ccccc1F)Nc1ccc(S(=O)(=O)Nc2nccs2)cc1,–,11.1%,–
Cc1c(C(=O)Nc2ccc(N3CCOCC3)cc2)oc2ccccc12,"0.00517 µM [rising, full curve, poor fit]",45.7%,–
COc1cccc(-n2c([S-])c(C(=O)Nc3ccc(C(F)(F)F)cc3)[n+]3ccccc23)c1,"14.6 µM [rising, partial curve]",41%,–
COc1ccc(S(=O)(=O)NNC(=O)c2ccccc2-n2cccc2)cc1,"20.6 µM [rising, single point]",44.8%,–
O=[N+]([O-])c1ccc(SCCc2ccccn2)cc1,–,19.3%,"29.1 µM [rising, single point]"
Clc1ccc(CO/N=C2\CCCc3nonc32)c(Cl)c1,–,4.49%,"4.61 µM [rising, full curve, poor fit]"

# Single entries from above.
# Under AC50 [1], `O=c1[nH]c(/C=C/c2ccc(OC(F)F)cc2)nc2c1cnn2-c1ccccc1` shows 9.2 µM [rising, partial curve]
# Under cell number change, `COc1cccc(-n2c([S-])c(C(=O)Nc3ccc(C(F)(F)F)cc3)[n+]3ccccc23)c1` shows 41%
# Under cell number change, `O=C(CSc1nc2ccccc2s1)N/N=C/c1cc([N+](=O)[O-])ccc1O` shows 3.27%
# Under AC50 [1], `COc1ccc(S(=O)(=O)NNC(=O)c2ccccc2-n2cccc2)cc1` shows 20.6 µM [rising, single point]
# Under AC50 [1], `O=C(Nc1ccncc1)Nc1ccc(F)cc1F` shows 0.411 µM [falling, single point]

# Additional results.

Structure (SMILES),AC50 [1],cell number change,AC50 [2]
Cc1nnc(NC(=O)c2cccc(NC(=O)C(C)C)c2)s1,–,-22.1%,"1.16 µM [falling, full curve]"
CCCCCCOc1ccc(/C(C)=N/NC2=NCCN2)cc1[N+](=O)[O-],–,-21.2%,"2.06 µM [falling, partial curve, poor fit]"
O=C(CNS(=O)(=O)c1c(Cl)cccc1Cl)N1CCCCCC1,"29.1 µM [rising, partial curve, poor fit]",31.4%,–
O=C1CC(N2CCOCC2)C(=O)N1c1ccc2c(c1)OCO2 (stereo not given),–,15.6%,–
CCCOc1ccc(NC(=O)CC2C(=O)N(C)C(=S)N2Cc2cccs2)cc1 (stereo not given),"23.1 µM [falling, partial curve, poor fit]",-53.2%,"25.9 µM [falling, partial curve, poor fit]"
CCn1nnnc1NC(=O)c1cccc(OC)c1,–,-14.3%,"0.082 µM [falling, full curve, poor fit]"
O=C(NNc1ccc([N+](=O)[O-])cc1[N+](=O)[O-])c1ccco1,"14.1 µM [falling, single point]",-38.1%,"10 µM [falling, partial curve]"
COc1ccc(/C(CC2OC(=O)c3ccccc32)=N\NC(N)=O)cc1 (stereo not given),"0.731 µM [rising, partial curve, poor fit]",-17.5%,–
O=C(Nc1ccccc1N1CCOCC1)c1cc(F)cc(F)c1,"7.31 µM [rising, partial curve, poor fit]",45.2%,"1.3 µM [rising, full curve, poor fit]"
Cc1cccc(-n2ccnc2SCC(=O)Nc2nccs2)c1,"18.4 µM [falling, single point]",-31.2%,"16.4 µM [falling, single point]"
Cc1ccc(C)c(-c2cc(C(=O)Nc3sc(C)c(C)c3C(N)=O)c3ccccc3n2)c1,–,–,"25.9 µM [falling, single point]"
Cc1ccccc1NC(=O)CN(C)S(=O)(=O)c1cccc2cccnc12,"2.59 µM [rising, partial curve, poor fit]",52.9%,–
COc1ccc(NC(=O)COc2ccc(/C=N/n3c(C)nnc3C)cc2OC)cc1,"0.058 µM [rising, full curve, poor fit]",–,"6.51 µM [rising, partial curve, poor fit]"
CCOc1ccc(NC(=O)c2ccccc2OC)cc1,"0.366 µM [rising, full curve]",26.9%,"0.517 µM [rising, full curve]"
CN1CCN(Cc2c(O)ccc3c(=O)c(Oc4ccccc4Cl)c(C(F)(F)F)oc23)CC1,–,1.71%,–
COc1ccccc1-c1cc(C(=O)N2CCCCC2)no1,"29.1 µM [rising, single point]",43.5%,"13 µM [rising, partial curve]"
CCOC(=O)c1sc(NC(=O)C2CC(=O)N(c3ccc(OC)cc3)C2)nc1C (stereo not given),–,-2.56%,–
COC(=O)/C=C1\SC(=NC(=O)c2ccc(C)cc2)NC1=O,"0.103 µM [rising, full curve, poor fit]",-35.1%,–
N#C/C(=C\c1cccc([N+](=O)[O-])c1)C(=O)NCC1CCCO1 (stereo not given),"23.1 µM [falling, single point]",-35.1%,–
O=c1ccnc(SCCC(F)=C(F)F)[nH]1,"0.00517 µM [falling, full curve, poor fit]",1.96%,"6.51 µM [falling, partial curve, poor fit]"

Structure (SMILES),AC50 [1],cell number change,AC50 [2]
Cc1ccc(C(=O)Nc2ccccc2C(=O)Nc2ccccn2)cc1Cl,–,-11.4%,"29.1 µM [falling, single point]"
COc1ccc(CNC(=O)COc2ccc(S(=O)(=O)N3CCOCC3)cc2)cc1,–,29.1%,"0.517 µM [rising, single point]"
N#Cc1ccc(Oc2ccc(S(=O)(=O)N3CCCCC3)cn2)cc1,"0.13 µM [falling, full curve, poor fit]",–,–
CC(=O)Nc1ccc(O)cc1,–,5.23%,"11.6 µM [falling, partial curve, poor fit]"
CCOC(=O)C1=C(C)NC(=O)NC1c1ccc(F)cc1 (stereo not given),–,0.604%,"23.1 µM [rising, single point]"
O=C(NCc1cccs1)C1CCCN1C(=O)Nc1ccccc1Cl (stereo not given),–,-2.63%,–
CCOC(=O)C1=C(C)N=c2s/c(=C/c3ccccc3)c(=O)n2C1c1ccc(OC)c(OC)c1 (stereo not given),–,10.4%,"16.4 µM [falling, single point]"
CCOc1cc(CNCc2cccnc2)cc(Br)c1OCC(N)=O,–,-9.89%,"0.731 µM [falling, full curve, poor fit]"
N#C/C(=C\Nc1ccc2cn[nH]c2c1)c1nc(-c2ccc(Cl)cc2)cs1,"10.3 µM [falling, partial curve]",-73.5%,"5.17 µM [falling, partial curve]"
O=C(CSc1nnc(-c2ccc(NS(=O)(=O)c3ccccc3)cc2)o1)NCC1CCCO1 (stereo not given),"0.58 µM [rising, partial curve]",16.6%,–
CCN(CC)CCCCCC(=O)Nc1ccccc1C(=O)Nc1ccccc1,–,4.2%,–
O=C(O)CCC(=O)N1CCN(S(=O)(=O)c2cccs2)CC1,–,7.31%,"0.00411 µM [rising, full curve, poor fit]"
CC1CCCCN1CCNC(=O)c1cc2c(-c3ccccc3F)nn(C)c2s1 (stereo not given),–,-20.3%,"0.82 µM [rising, full curve]"
CN(C)S(=O)(=O)c1ccc(NC(=O)CNc2cc(S(=O)(=O)N3CCCC3)ccc2OCC(F)(F)F)cc1,"0.366 µM [falling, full curve]",-40.3%,"5.8 µM [falling, full curve]"
Cc1ccc(CNC(=O)C2CCCN(S(=O)(=O)N3CCC(C)CC3)C2)cc1 (stereo not given),–,-13.7%,"6.51 µM [falling, single point]"
CCOc1ccc2[nH]c(=O)c(CN(Cc3ccc(F)cc3)C(=O)c3ccco3)cc2c1,"0.00461 µM [falling, full curve, poor fit]",4.14%,–
O=C(COC(=O)c1nn(-c2ccccc2)c(=O)c2ccccc12)NC1CCS(=O)(=O)C1 (stereo not given),"0.13 µM [falling, full curve, poor fit]",-35.9%,–
N=C1C(c2nc3ccccc3[nH]2)=C(O)CN1NC(=O)c1c[nH]c2ccccc12,–,–,"6.51 µM [falling, single point]"
